Holding throughout (assay): DAPPL (digital affinity profiling via proximity ligation, sequencing)
Details in all cases: 10 mM Tris-HCl pH 7.5, 50 mM NaCl, 1 mM DTT, 4% glycerol, room temperature, 30 min; GST-TFs on glutathione beads, 16-mer random dsDNA library, 0.1% …; high values mean tight binding; double strand, one strand shown; scale: fold enrichment (6-mer frequency, TF over GST control)

By UniProt entry, the sequences of proteins in these tests, tags left out. Where a name states a change or a piece, a line headed by the entry shows the natural chain unless it says otherwise.
UniProt P32519: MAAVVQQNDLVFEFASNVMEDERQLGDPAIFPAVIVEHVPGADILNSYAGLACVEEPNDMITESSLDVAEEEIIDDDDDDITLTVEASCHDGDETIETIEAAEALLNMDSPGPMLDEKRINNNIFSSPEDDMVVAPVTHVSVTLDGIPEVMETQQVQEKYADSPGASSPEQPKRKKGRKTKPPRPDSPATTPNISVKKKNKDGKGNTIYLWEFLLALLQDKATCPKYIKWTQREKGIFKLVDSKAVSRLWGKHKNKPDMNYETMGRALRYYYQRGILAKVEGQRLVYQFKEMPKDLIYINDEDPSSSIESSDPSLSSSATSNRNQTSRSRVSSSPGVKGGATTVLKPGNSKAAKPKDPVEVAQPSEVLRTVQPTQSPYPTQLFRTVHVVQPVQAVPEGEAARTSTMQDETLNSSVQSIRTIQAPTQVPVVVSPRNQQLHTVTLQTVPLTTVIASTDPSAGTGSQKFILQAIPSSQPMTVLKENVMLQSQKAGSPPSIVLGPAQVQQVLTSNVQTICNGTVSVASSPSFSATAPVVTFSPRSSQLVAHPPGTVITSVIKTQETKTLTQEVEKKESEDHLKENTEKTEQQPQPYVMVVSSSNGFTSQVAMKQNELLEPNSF
UniProt P50549: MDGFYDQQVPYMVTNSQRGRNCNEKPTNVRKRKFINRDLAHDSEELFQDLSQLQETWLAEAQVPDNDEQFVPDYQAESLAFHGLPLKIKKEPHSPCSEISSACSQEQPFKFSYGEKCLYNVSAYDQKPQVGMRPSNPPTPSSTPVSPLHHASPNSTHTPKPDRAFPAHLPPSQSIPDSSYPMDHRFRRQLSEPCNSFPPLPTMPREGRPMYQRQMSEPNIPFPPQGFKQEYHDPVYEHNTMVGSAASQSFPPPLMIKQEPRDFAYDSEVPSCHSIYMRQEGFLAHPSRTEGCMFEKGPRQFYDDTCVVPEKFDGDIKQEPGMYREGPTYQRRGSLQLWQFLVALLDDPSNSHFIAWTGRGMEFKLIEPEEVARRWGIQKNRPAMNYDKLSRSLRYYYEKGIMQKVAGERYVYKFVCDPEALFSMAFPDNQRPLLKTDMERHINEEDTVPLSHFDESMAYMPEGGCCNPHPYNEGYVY

The target of experiment [1] is T1, ERG (UniProt P11308).
T1 sequence: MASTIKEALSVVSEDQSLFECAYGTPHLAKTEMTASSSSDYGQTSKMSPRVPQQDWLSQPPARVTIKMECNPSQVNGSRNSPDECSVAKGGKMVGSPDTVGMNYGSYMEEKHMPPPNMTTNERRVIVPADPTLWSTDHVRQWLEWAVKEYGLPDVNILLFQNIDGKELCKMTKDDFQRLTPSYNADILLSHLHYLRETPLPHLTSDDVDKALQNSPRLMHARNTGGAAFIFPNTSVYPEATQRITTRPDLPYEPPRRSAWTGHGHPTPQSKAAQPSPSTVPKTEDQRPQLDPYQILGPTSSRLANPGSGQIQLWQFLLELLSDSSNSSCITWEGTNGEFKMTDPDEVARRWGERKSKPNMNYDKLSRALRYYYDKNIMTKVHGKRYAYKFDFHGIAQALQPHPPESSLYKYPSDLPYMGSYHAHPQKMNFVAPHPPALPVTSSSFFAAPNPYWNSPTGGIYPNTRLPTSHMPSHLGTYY

The target in experiment [2] is ELF1 (UniProt P32519).
The target in experiment [3] is T2, ELK4 (UniProt P28324-2).
T2 sequence: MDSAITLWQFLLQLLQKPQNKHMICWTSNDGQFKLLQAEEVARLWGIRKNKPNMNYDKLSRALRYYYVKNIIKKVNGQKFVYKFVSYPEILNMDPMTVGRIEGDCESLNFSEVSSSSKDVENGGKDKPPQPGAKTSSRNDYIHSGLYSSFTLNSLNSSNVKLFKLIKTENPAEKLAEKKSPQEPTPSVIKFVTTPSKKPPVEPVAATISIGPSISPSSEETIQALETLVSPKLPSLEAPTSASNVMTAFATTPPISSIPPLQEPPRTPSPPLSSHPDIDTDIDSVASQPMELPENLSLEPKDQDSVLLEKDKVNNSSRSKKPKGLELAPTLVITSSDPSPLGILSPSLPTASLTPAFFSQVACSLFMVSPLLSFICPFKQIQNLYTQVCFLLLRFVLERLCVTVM

The target of experiment [4] is T3, ETV4 (UniProt P43268).
T3 sequence: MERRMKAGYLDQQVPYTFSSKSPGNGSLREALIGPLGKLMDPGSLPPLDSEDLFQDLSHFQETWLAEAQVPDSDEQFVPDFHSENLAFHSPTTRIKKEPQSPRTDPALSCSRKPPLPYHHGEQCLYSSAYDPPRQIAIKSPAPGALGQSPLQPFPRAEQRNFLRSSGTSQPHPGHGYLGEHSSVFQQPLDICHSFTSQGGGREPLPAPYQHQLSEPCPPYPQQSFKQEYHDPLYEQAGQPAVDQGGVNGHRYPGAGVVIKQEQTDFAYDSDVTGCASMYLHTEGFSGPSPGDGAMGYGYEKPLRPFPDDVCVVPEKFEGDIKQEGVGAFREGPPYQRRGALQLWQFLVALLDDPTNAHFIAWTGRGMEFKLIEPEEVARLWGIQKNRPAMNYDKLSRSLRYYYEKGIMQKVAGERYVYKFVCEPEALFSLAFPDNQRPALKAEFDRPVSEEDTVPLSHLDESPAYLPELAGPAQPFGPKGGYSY

Experiment [5] has as its target ETV1 (UniProt P50549).
The target in experiment [6] is T4, ERF (UniProt P50548).
T4 sequence: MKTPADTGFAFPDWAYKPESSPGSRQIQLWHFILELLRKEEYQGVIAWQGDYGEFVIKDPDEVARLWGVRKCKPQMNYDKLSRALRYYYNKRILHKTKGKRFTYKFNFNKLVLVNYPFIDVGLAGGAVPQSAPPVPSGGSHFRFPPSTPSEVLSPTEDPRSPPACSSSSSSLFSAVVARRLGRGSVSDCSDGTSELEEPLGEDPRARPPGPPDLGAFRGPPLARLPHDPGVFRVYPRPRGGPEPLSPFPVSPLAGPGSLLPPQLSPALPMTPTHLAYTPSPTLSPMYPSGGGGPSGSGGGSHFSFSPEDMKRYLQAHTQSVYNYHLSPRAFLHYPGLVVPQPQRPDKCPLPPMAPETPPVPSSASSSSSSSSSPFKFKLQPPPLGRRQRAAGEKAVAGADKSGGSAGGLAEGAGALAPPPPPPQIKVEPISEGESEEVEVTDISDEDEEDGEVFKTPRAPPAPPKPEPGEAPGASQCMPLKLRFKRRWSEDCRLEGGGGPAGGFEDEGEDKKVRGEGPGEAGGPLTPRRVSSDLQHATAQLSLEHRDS

The entries are a selection whose mix differs from that of the whole data set. For part of these data: At the low end of the ranking, values are background and their order means little. Some of the results follow. For part of these data: The exact form of the protein is not confirmed.

Experimental findings from publication PMC7862700 are described below.

On to ATAGGG, for which the binding signal came out at 0.983 in experiment [1]; 0.993 in experiment [2]; 1.06 in experiment [3]; 0.943 in experiment [4]; 0.983 in experiment [5]; 1.14 in experiment [6].
With TGTCAG, the binding signal amounted to 0.926 in experiment [1]; 0.895 in experiment [2]; 1.02 in experiment [3]; 0.938 in experiment [4]; 0.9 in experiment [5]; 0.938 in experiment [6].
Take CGTCGA: the binding signal in experiment [1] amounted to 0.863; in experiment [2], 0.838; in experiment [3] it was 0.878; in experiment [4], 0.828; in experiment [5], 0.89; in experiment [6], 0.893.
Turning to GAGAAA, the binding signal in experiment [1] turned out to be 0.697; in experiment [2], 0.743; in experiment [3], 0.65; in experiment [4], 0.689; in experiment [5] it was 0.699; in experiment [6], 0.771.
With TAGTCA, the binding signal stood at 0.948 in experiment [1]; 0.92 in experiment [2]; 0.929 in experiment [3]; 0.943 in experiment [4]; 0.962 in experiment [5]; 0.892 in experiment [6].
As to AGTTGC, the binding signal in experiment [1] was 0.939; in experiment [2] it was 0.931; in experiment [3], 1.02; in experiment [4] it was 0.975; in experiment [5] it was 0.972; in experiment [6] it was 0.877.
As to ATAACG, the binding signal in experiment [1] amounted to 0.984; in experiment [2], 0.971; in experiment [3], 0.904; in experiment [4], 1.02; in experiment [5], 0.988; in experiment [6] it was 0.89.
Consider AGGAAT, for which the binding signal in experiment [1] amounted to 0.791; in experiment [2], 0.745; in experiment [3] it was 0.728; in experiment [4], 0.786; in experiment [5], 0.745; in experiment [6], 0.833.
With GAAAGC, the binding signal in experiment [1] stood at 0.957; in experiment [2], 0.861; in experiment [3], 0.972; in experiment [4], 0.888; in experiment [5], 0.838; in experiment [6], 0.888.
Turning to TCGAGG, the binding signal in experiment [1] is 0.805; in experiment [2] it was 0.749; in experiment [3] it was 0.793; in experiment [4] it was 0.737; in experiment [5], 0.86; in experiment [6] it was 0.918.
Take AACTGT: the binding signal in experiment [1] amounted to 0.948; in experiment [2] it was 1.02; in experiment [3], 0.947; in experiment [4], 0.975; in experiment [5], 0.954; in experiment [6] it was 0.982.
Turning to GTCACC, the binding signal is 0.936 in experiment [1]; 0.927 in experiment [2]; 0.849 in experiment [3]; 1.02 in experiment [4]; 0.929 in experiment [5]; 0.753 in experiment [6].
For the sequence GTTCAG, the binding signal in experiment [1] is 0.869; in experiment [2] it was 0.873; in experiment [3] it was 0.849; in experiment [4], 0.879; in experiment [5], 0.838; in experiment [6] it was 0.827.
ACCGGT: the binding signal was 0.967 in experiment [1]; 0.913 in experiment [2]; 0.915 in experiment [3]; 0.927 in experiment [4]; 0.932 in experiment [5]; 0.907 in experiment [6].
As for ACCCGT, the binding signal in experiment [1] amounted to 0.908; in experiment [2], 0.883; in experiment [3] it was 0.895; in experiment [4] it was 0.967; in experiment [5], 0.907; in experiment [6], 0.942.
Consider GTGCTG, for which the binding signal in experiment [1] worked out at 0.777; in experiment [2] it was 0.875; in experiment [3] it was 0.995; in experiment [4], 1; in experiment [5], 0.99; in experiment [6] it was 0.911.
As to GATAAC, the binding signal in experiment [1] worked out at 0.908; in experiment [2], 0.955; in experiment [3], 0.926; in experiment [4], 0.954; in experiment [5], 0.906; in experiment [6], 0.893.
Regarding GCGGCA, the binding signal in experiment [1] worked out at 0.898; in experiment [2], 0.875; in experiment [3] it was 0.814; in experiment [4] it was 0.921; in experiment [5] it was 0.776; in experiment [6], 0.802.
As for CTAGGG, the binding signal was 0.86 in experiment [1]; 0.87 in experiment [2]; 0.928 in experiment [3]; 0.928 in experiment [4]; 0.848 in experiment [5]; 0.9 in experiment [6].
For GAAGAT, the binding signal in experiment [1] worked out at 0.928; in experiment [2], 0.865; in experiment [3], 0.951; in experiment [4] it was 0.936; in experiment [5] it was 0.937; in experiment [6], 0.94.
For TAAGAC, the binding signal amounted to 0.917 in experiment [1]; 0.904 in experiment [2]; 0.865 in experiment [3]; 0.893 in experiment [4]; 0.818 in experiment [5]; 0.856 in experiment [6].
For the sequence GCATAC, the binding signal worked out at 0.974 in experiment [1]; 0.979 in experiment [2]; 0.973 in experiment [3]; 0.913 in experiment [4]; 0.926 in experiment [5]; 0.868 in experiment [6].
On to GTATGT, for which the binding signal in experiment [1] is 0.98; in experiment [2], 1.03; in experiment [3], 0.971; in experiment [4] it was 0.936; in experiment [5], 0.988; in experiment [6], 0.894.
